# In patent US20250376472A1, “3-(PHENYLSULFONYL)-[1,2,3]TRIAZOLO[1,5A]QUINAZOLIN-5(4H)-ONE DERIVATIVES” (priority 2022, published 2025):
# Sequences of proteins named here, by UniProt entry; tags and fusion partners are left off. A change or cut given only in a name is not applied to a line headed by its entry.
# UniProt P0A0I7: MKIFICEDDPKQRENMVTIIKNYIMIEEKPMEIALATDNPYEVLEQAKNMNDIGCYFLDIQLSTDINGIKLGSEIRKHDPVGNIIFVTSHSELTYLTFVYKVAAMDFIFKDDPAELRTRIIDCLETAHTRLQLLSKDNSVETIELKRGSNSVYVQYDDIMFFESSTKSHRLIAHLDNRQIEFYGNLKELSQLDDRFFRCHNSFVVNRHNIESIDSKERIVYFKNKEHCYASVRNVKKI
# For at least one compound, name, drawing or mass did not settle the structure. Some compounds share one wording; it may come from a single statement.
# Target: T1, AgrA (Staphylococcus aureus, UniProt P0A0I7)
# T1 construct: endogenous in cells; host or cells: S. aureus USA300 strain UAMS-1625 carrying a P3-lacZ reporter plasmid
# Type: cell-based, S. aureus
# Details: 40 mg/mL HSA versus no HSA
# Experimental: The inventive compounds are 3-(phenylsulfonyl)-[1,2,3]triazolo[1,5a]quinazolin-5(4h)-one derivatives comprising an N-bound piperazine or homopiperazine at the 8-position of the [1,2,3]triazolo[1,5a]quinazolin-5(4h)-one core, further substituted (on the second nitrogen atom) by an (optionally substituted) acetyl or propionyl amide group. […] Specifically, the reporter gene lacZ (which encodes the protein product β-galactosidase) was transfected into S. aureus with a plasmid under control of the P3 promoter. The compounds were serially diluted in lysogeny broth (LB), and incubated with S. aureus. Following incubation, the S. aureus cells were lysed and treated with 4-methylumbelliferyl-galactopyranoside (MUG). The β-galactosidase produced by expression of lacZ cleaved the MUG into galactopyranose and 4-methylumbelliferone, which was measured by fluorescence.
# The resulting reporter strain was used to measure AgrA inhibitory activity as follows. From an overnight culture plate, cells were resuspended in 0.9% (w/v) saline solution and bacterial inoculum was prepared in LB medium with 5×10^5 CFU/ml. Compounds were two-fold serially diluted in LB and 50 μL of this 10× concentrated samples were added into the 96-deep well plate. 500 μL of bacterial suspension was finally added to the compounds or DMSO control. Plates were covered and incubated with shaking at 37° C. After 18 hours incubation, 100 μL was transferred to a new clear 96-well plate and the OD600 was measured using a TECAN Infinite F200 microplate reader to control for growth inhibition. Another 100 μL was transferred to a new black 96-well plate containing 30 μL of lysis buffer (20 mM Tris/HCl, 3 mM MgCl2, 0.5% Tween 20 (v/v), 0.5% NP-40 (v/v)) and the plate was incubated with shaking at 37° C. for 60 min. 20 μL of the substrate MUG (4-Methylumbelliferyl O-D-galactopyranoside) at 0.25 mg/ml was added and the fluorescence (excitation: 360 nm, emission: 450 mu) was measured with a TECAN Infinite F200 microplate reader after 3 hours incubation at 37° C. with shaking. The IC50 was determined using GraphPad PRISM after normalization to DMSO control.
row,Structure (SMILES),Ratio IC50 (in presence of HSA)/IC50 (in absence of HSA)
1,Cc1ccc(S(=O)(=O)c2nnn3c2[nH]c(=O)c2ccc(N4CCN(CC(=O)NCCn5cccc5)CC4)cc23)c(C)c1 [Compound 115],++ (++: 25 < ratio ≤ 125)
2,Cc1ccc(S(=O)(=O)c2nnn3c2[nH]c(=O)c2ccc(N4CCCN(CC(=O)NC5CCOCC5)CC4)cc23)c(C)c1 [Compound 103],+++ (+++: ratio ≤ 25)
3,Cc1ccc(S(=O)(=O)c2nnn3c2[nH]c(=O)c2ccc(N4CCN(CC(=O)Nc5ccccc5)CC4)cc23)c(C)c1 [Compound 104],++ (++: 25 < ratio ≤ 125)
4,Cc1ccc(S(=O)(=O)c2nnn3c2[nH]c(=O)c2ccc(N4CCN(CC(=O)N5CCC(CN)C5)CC4)cc23)c(C)c1 (stereo not shown) [Compound 137],+++ (+++: ratio ≤ 25)
5,Cc1ccc(S(=O)(=O)c2nnn3c2[nH]c(=O)c2ccc(N4CCN(CC(=O)N5CCC(CN)CC5)CC4)cc23)c(C)c1 [Compound 147],+++ (+++: ratio ≤ 25)
6,Cc1ccc(S(=O)(=O)c2nnn3c2[nH]c(=O)c2ccc(N4CCN(CC(=O)N5CCCN(CCO)CC5)CC4)cc23)c(C)c1 [Compound 71],+++ (+++: ratio ≤ 25)
7,Cc1ccc(S(=O)(=O)c2nnn3c2[nH]c(=O)c2ccc(N4CCN(CC(=O)NCc5cocn5)CC4)cc23)c(C)c1 [Compound 114],++ (++: 25 < ratio ≤ 125)
8,Cc1ccc(S(=O)(=O)c2nnn3c2[nH]c(=O)c2ccc(N4CCN(CC(=O)NCCCC(F)(F)F)CC4)cc23)c(C)c1 [Compound 15],++ (++: 25 < ratio ≤ 125)
9,Cc1ccc(S(=O)(=O)c2nnn3c2[nH]c(=O)c2ccc(N4CCN(CC(=O)NCCO)CC4)cc23)c(C)c1 [Compound 19],++ (++: 25 < ratio ≤ 125)
10,Cc1ccc(S(=O)(=O)c2nnn3c2[nH]c(=O)c2ccc(N4CCN(CC(=O)NCCN5CCCC5)CC4)cc23)c(C)c1 [Compound 94],+++ (+++: ratio ≤ 25)
11,Cc1ccc(S(=O)(=O)c2nnn3c2[nH]c(=O)c2ccc(N4CCN(CC(=O)NC5CCNCC5)CC4)cc23)c(C)c1 [Compound 140],+++ (+++: ratio ≤ 25)
12,Cc1ccc(S(=O)(=O)c2nnn3c2[nH]c(=O)c2ccc(N4CCN(CC(=O)NCC5CCCC5)CC4)cc23)c(C)c1 [Compound 37],+++ (+++: ratio ≤ 25)
13,Cc1ccc(S(=O)(=O)c2nnn3c2[nH]c(=O)c2ccc(N4CCN(CC(=O)N5CCC6(CCN(C)CC6)CC5)CC4)cc23)c(C)c1 [Compound 127],+++ (+++: ratio ≤ 25)
14,Cc1ccc(S(=O)(=O)c2nnn3c2[nH]c(=O)c2ccc(N4CCN(CC(=O)N5CCCOCC5)CC4)cc23)c(C)c1 [Compound 57],++ (++: 25 < ratio ≤ 125)
15,Cc1ccc(S(=O)(=O)c2nnn3c2[nH]c(=O)c2ccc(N4CCN(CC(=O)N5CCC(N)C5)CC4)cc23)c(C)c1 (stereo not shown) [Compound 135],+++ (+++: ratio ≤ 25)
16,Cc1ccc(S(=O)(=O)c2nnn3c2[nH]c(=O)c2ccc(N4CCN(CC(=O)NCC5CCCCC5)CC4)cc23)c(C)c1 [Compound 40],+++ (+++: ratio ≤ 25)
17,Cc1ccc(S(=O)(=O)c2nnn3c2[nH]c(=O)c2ccc(N4CCN(CC(=O)N(C)C)CC4)cc23)c(C)c1 [Compound 8],+++ (+++: ratio ≤ 25)
18,Cc1ccc(S(=O)(=O)c2nnn3c2[nH]c(=O)c2ccc(N4CCCN(CC(=O)N5CCCCC5)CC4)cc23)c(C)c1 [Compound 85],+++ (+++: ratio ≤ 25)
19,Cc1ccc(S(=O)(=O)c2nnn3c2[nH]c(=O)c2ccc(N4CCCN(CCC(=O)N5CCCC5)CC4)cc23)c(C)c1 [Compound 163],+++ (+++: ratio ≤ 25)
20,Cc1ccc(S(=O)(=O)c2nnn3c2[nH]c(=O)c2ccc(N4CCN(CC(=O)NCCN5CCOCC5)CC4)cc23)c(C)c1 [Compound 91],+++ (+++: ratio ≤ 25)
21,Cc1ccc(S(=O)(=O)c2nnn3c2[nH]c(=O)c2ccc(N4CCN(CC(=O)N5CCCN(C(C)C)CC5)CC4)cc23)c(C)c1 [Compound 70],+++ (+++: ratio ≤ 25)
22,Cc1ccc(S(=O)(=O)c2nnn3c2[nH]c(=O)c2ccc(N4CCN(CC(=O)N5CC(C6CC6)C5)CC4)cc23)c(C)c1 [Compound 73],+++ (+++: ratio ≤ 25)

row,Structure (SMILES),Ratio IC50 (in presence of HSA)/IC50 (in absence of HSA)
1,CCCCCNC(=O)CN1CCN(c2ccc3c(=O)[nH]c4c(S(=O)(=O)c5ccc(C)cc5C)nnn4c3c2)CC1 [Compound 10],++ (++: 25 < ratio ≤ 125)
2,Cc1ccc(S(=O)(=O)c2nnn3c2[nH]c(=O)c2ccc(N4CCN(CC(=O)NCCN5CCN(C)CC5)CC4)cc23)c(C)c1 [Compound 89],+++ (+++: ratio ≤ 25)
3,Cc1ccc(S(=O)(=O)c2nnn3c2[nH]c(=O)c2ccc(N4CCN(CC(=O)NCCC(F)(F)F)CC4)cc23)c(C)c1 [Compound 14],+++ (+++: ratio ≤ 25)
4,O=C(CN1CCN(c2ccc3c(=O)[nH]c4c(S(=O)(=O)c5ccc(C(F)(F)F)cc5)nnn4c3c2)CC1)N1CCOCC1 [Compound 169],+++ (+++: ratio ≤ 25)
5,O=C(CN1CCN(c2ccc3c(=O)[nH]c4c(S(=O)(=O)c5ccc(C(F)(F)F)cc5)nnn4c3c2)CC1)N1CCCC1 [Compound 164],+++ (+++: ratio ≤ 25)
6,Cc1ccc(S(=O)(=O)c2nnn3c2[nH]c(=O)c2ccc(N4CCN(CC(=O)N5CCC(F)(F)CC5)CC4)cc23)c(C)c1 [Compound 64],+++ (+++: ratio ≤ 25)
7,Cc1ccc(S(=O)(=O)c2nnn3c2[nH]c(=O)c2ccc(N4CCN(CC(=O)N5CCN(C6CC6)CC5)CC4)cc23)c(C)c1 [Compound 60],+++ (+++: ratio ≤ 25)
8,Cc1ccc(S(=O)(=O)c2nnn3c2[nH]c(=O)c2ccc(N4CCN(CC(=O)N5CCC(N)CC5)CC4)cc23)c(C)c1 [Compound 141],+++ (+++: ratio ≤ 25)
9,Cc1ccc(S(=O)(=O)c2nnn3c2[nH]c(=O)c2ccc(N4CCN(CC(=O)N5CCC5)CC4)cc23)c(C)c1 [Compound 54],++ (++: 25 < ratio ≤ 125)
10,Cc1ccc(S(=O)(=O)c2nnn3c2[nH]c(=O)c2ccc(N4CCN(CC(=O)N5CCN(C)CC5)CC4)cc23)c(C)c1 [Compound 58],+++ (+++: ratio ≤ 25)
11,Cc1ccc(S(=O)(=O)c2nnn3c2[nH]c(=O)c2ccc(N4CCN(CC(=O)NCc5ccco5)CC4)cc23)c(C)c1 [Compound 113],++ (++: 25 < ratio ≤ 125)
12,Cc1ccc(S(=O)(=O)c2nnn3c2[nH]c(=O)c2ccc(N4CCN(CC(=O)N5CCN(C(C)(C)C)CC5)CC4)cc23)c(C)c1 [Compound 59],+++ (+++: ratio ≤ 25)
13,Cc1ccc(S(=O)(=O)c2nnn3c2[nH]c(=O)c2ccc(N4CCN(CC(=O)NCC5CCN(C)CC5)CC4)cc23)c(C)c1 [Compound 88],+++ (+++: ratio ≤ 25)
14,C#CCNC(=O)CN1CCN(c2ccc3c(=O)[nH]c4c(S(=O)(=O)c5ccc(C)cc5C)nnn4c3c2)CC1 [Compound 23],++ (++: 25 < ratio ≤ 125)
15,Cc1ccc(S(=O)(=O)c2nnn3c2[nH]c(=O)c2ccc(N4CCCN(CC(=O)NCCO)CC4)cc23)c(C)c1 [Compound 32],+++ (+++: ratio ≤ 25)
16,Cc1ccc(S(=O)(=O)c2nnn3c2[nH]c(=O)c2ccc(N4CCN(CC(=O)NC5CC5)CC4)cc23)c(C)c1 [Compound 33],++ (++: 25 < ratio ≤ 125)
17,Cc1ccc(S(=O)(=O)c2nnn3c2[nH]c(=O)c2ccc(N4CCN(CC(=O)NCCN5CCCCC5)CC4)cc23)c(C)c1 [Compound 90],+++ (+++: ratio ≤ 25)
18,Cc1ccc(S(=O)(=O)c2nnn3c2[nH]c(=O)c2ccc(N4CCCN(CC(=O)NC5CCC5)CC4)cc23)c(C)c1 [Compound 51],+++ (+++: ratio ≤ 25)
19,COCCNC(=O)CN1CCN(c2ccc3c(=O)[nH]c4c(S(=O)(=O)c5ccc(C)cc5C)nnn4c3c2)CC1 [Compound 16],++ (++: 25 < ratio ≤ 125)
20,CCCNC(=O)CN1CCN(c2ccc3c(=O)[nH]c4c(S(=O)(=O)c5ccc(C)cc5C)nnn4c3c2)CC1 [Compound 5],++ (++: 25 < ratio ≤ 125)
21,Cc1ccc(S(=O)(=O)c2nnn3c2[nH]c(=O)c2ccc(N4CCN(CC(=O)NCC5CCCO5)CC4)cc23)c(C)c1 (stereo not shown) [Compound 96],+++ (+++: ratio ≤ 25)
